Source: the supplement of paper PMC10849652
The other results are listed elsewhere or left out.

Chains of the proteins cited; added tags and fusions are not shown. Lines headed by an entry give the natural chain unless they say otherwise; changes in a name come on top.
UniProt P62070: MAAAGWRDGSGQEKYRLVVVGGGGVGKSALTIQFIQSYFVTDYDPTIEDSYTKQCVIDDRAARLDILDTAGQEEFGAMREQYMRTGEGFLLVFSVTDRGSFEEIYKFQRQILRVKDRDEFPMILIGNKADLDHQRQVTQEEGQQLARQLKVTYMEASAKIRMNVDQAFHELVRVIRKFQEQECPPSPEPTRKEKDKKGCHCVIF
UniProt Q9H6T3, whole entry, looked up: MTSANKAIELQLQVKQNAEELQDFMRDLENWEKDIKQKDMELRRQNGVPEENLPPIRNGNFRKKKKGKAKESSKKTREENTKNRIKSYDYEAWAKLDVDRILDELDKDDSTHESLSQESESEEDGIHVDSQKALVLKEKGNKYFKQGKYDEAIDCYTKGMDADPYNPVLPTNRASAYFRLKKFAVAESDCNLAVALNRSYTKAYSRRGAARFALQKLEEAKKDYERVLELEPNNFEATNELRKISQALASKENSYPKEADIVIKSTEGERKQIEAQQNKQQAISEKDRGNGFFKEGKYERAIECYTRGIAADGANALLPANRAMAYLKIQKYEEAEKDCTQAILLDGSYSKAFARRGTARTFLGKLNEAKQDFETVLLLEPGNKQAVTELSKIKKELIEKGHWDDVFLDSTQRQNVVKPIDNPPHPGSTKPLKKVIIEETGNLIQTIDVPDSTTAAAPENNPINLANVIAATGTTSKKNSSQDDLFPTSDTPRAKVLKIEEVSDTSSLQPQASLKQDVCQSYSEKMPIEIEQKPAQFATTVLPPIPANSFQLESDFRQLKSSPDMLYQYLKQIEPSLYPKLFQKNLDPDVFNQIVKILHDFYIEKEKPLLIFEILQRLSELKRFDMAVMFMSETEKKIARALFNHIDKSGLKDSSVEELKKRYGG
UniProt Q7LG56, whole entry, looked up: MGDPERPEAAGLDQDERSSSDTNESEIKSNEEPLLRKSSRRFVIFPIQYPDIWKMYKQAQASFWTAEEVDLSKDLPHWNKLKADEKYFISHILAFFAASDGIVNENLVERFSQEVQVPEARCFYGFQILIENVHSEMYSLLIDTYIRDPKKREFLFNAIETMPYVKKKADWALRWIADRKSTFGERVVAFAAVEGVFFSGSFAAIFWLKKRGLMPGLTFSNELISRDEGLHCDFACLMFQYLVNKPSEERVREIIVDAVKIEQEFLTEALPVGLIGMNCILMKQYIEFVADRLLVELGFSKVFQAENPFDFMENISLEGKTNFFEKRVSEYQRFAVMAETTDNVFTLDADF
UniProt Q96S38: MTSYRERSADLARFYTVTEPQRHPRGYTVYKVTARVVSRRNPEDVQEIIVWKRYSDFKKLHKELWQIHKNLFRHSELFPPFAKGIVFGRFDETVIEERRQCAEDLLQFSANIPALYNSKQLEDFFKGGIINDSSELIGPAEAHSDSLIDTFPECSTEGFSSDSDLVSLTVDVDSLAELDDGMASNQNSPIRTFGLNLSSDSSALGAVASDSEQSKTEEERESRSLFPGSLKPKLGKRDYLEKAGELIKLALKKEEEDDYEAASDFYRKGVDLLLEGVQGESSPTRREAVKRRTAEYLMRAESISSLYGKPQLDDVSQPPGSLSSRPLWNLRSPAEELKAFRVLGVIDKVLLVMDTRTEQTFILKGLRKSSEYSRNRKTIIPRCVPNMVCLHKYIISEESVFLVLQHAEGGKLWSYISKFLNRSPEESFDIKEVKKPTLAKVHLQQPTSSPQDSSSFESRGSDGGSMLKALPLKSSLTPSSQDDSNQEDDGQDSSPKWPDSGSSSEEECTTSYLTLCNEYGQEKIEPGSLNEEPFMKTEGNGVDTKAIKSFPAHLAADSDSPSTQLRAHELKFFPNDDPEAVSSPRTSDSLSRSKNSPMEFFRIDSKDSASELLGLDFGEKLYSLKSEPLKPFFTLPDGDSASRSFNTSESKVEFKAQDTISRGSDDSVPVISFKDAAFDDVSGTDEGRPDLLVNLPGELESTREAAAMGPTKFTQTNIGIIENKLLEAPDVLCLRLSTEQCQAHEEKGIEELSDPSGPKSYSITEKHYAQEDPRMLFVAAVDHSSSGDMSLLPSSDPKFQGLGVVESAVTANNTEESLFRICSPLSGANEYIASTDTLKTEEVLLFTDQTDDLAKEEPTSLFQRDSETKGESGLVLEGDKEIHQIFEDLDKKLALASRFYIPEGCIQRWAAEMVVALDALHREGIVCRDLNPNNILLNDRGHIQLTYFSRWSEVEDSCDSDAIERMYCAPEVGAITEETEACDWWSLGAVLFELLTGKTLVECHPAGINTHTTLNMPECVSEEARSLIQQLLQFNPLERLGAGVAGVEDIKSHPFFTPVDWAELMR
UniProt Q7L523, whole entry, looked up: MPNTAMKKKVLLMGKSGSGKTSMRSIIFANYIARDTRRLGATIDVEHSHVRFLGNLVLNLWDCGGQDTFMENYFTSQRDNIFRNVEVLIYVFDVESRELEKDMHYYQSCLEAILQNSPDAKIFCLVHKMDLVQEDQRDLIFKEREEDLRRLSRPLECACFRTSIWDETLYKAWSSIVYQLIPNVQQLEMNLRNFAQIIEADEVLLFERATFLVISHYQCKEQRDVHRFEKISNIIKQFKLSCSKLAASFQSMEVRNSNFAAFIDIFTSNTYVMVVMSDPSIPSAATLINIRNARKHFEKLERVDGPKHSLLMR
UniProt O75695: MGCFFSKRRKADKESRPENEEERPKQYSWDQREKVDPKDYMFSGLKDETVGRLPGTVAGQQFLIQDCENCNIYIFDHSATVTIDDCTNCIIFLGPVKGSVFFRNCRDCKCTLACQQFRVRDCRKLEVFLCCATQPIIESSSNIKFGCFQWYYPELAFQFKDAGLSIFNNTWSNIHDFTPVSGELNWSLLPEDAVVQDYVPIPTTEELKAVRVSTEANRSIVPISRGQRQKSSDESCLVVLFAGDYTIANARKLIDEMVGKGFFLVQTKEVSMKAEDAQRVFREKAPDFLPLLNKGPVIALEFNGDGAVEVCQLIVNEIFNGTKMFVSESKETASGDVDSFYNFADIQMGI
UniProt Q86WX3: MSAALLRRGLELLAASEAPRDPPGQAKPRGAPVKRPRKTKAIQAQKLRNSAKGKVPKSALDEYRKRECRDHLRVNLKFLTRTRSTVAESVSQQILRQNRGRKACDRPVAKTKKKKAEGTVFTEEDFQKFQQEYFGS
UniProt Q9H633: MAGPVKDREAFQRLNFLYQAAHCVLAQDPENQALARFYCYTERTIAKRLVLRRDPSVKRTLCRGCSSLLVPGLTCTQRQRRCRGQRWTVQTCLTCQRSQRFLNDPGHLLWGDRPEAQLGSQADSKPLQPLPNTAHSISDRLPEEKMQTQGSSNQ
UniProt P31350, whole entry, looked up: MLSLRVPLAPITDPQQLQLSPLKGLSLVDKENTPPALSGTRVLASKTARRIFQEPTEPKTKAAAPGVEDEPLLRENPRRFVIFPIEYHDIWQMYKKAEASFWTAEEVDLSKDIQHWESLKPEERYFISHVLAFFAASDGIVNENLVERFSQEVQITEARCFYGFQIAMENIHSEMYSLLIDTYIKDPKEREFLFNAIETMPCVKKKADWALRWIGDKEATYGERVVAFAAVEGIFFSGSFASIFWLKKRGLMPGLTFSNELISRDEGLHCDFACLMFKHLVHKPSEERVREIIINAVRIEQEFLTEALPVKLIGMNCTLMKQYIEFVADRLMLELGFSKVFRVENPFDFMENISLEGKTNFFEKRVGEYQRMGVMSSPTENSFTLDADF
UniProt P51812, whole entry, looked up: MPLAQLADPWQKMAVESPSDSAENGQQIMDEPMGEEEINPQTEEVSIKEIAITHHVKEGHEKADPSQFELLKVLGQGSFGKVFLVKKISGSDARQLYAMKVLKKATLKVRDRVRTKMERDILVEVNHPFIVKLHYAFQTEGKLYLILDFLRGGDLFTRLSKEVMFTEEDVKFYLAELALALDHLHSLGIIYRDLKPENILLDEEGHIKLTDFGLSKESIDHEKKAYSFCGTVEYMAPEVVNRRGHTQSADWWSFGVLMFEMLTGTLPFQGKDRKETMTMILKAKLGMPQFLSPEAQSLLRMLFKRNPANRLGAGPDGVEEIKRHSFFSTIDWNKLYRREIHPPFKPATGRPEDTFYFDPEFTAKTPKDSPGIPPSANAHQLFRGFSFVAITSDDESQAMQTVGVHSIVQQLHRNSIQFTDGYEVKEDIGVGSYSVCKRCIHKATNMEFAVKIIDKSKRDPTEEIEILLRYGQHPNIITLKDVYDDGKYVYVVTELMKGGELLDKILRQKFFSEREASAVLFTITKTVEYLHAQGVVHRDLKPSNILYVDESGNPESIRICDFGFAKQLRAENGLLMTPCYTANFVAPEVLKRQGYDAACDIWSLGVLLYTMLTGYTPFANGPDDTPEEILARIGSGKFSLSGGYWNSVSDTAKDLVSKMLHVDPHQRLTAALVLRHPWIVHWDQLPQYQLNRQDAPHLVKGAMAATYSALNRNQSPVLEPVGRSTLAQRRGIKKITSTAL
UniProt Q01974, whole entry, looked up: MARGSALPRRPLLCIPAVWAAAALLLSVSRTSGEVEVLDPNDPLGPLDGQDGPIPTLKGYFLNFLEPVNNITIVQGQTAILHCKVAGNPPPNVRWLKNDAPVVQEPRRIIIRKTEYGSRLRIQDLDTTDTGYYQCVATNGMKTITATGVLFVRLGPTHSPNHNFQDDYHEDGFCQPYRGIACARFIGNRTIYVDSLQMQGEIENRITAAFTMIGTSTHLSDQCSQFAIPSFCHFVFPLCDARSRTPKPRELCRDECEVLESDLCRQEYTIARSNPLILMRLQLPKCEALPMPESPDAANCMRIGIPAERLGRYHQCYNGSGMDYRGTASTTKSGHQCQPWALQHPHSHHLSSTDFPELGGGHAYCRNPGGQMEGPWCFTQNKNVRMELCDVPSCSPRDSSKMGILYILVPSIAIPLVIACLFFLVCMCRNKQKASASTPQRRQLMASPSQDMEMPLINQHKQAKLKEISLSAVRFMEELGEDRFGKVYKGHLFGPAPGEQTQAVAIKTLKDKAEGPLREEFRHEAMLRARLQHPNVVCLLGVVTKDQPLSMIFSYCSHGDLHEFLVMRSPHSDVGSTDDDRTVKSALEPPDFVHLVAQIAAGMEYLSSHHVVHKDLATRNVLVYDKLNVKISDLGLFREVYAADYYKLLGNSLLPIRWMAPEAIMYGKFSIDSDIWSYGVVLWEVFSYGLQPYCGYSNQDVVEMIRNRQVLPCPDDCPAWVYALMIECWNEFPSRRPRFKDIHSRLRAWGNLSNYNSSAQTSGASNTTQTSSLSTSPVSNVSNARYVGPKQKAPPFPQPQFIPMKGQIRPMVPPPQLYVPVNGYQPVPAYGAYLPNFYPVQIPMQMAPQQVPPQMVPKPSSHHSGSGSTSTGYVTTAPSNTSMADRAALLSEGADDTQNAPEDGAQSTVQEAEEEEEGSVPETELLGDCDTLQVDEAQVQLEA
UniProt Q15287: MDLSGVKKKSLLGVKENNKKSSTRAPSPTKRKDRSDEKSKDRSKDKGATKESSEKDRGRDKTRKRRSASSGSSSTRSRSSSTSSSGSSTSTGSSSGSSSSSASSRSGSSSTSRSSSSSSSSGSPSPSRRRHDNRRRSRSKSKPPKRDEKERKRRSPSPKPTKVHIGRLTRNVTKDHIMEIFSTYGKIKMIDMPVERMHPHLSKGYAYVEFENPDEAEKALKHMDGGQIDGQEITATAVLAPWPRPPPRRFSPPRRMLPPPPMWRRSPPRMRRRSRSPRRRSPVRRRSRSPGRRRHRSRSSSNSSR

Experiments:
Experiment in all cases: log2 fold change, soluble protein after heating vs DMSO (PISA); higher = thermal stabilisation; K562 cells, 10 uM, 30 min; active = over 0.2 and 3.5 SD of the protein, either way, in both replicates (recomputed)
[1] = compound: CC1=C(C=C(C=C1)NC(=O)C2=CC(=CC=C2)C(C)(C)C#N)NC3=CC4=C(C=C3)N=CN(C4=O)C
Summary of the method: (§1)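 K562 cells at 2×10^6 cells/mL were given 10 μM compound for 30 min. Aliquots then went through 3 min of heating across 48°C-58°C, were pooled, and were extracted in PBS with 0.5% NP-40 at 4°C, and the supernatant after 21,000xg for 90 min was quantified by TMTpro 16plex LC-MS/MS with channel sums equalised. Thermal stability relative to control samples, from duplicates, is given as log2 fold change.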

[2] = compound: CC1=C(C=C(C=C1)NC(=O)C2=CC(=CC=C2)N(C)C)NC(=O)C3=CC=C(C=C3)O
Summary of the method: as §1

[3] = compound: CC1=CC=C(C=C1)SC2=C3C=C(SC3=CN=C2)C(=O)N
Summary of the method: as §1

[4] = compound: CC1=NC(=CC=C1)C2=C(N=C(N2)C(C)(C)C)C3=CC4=NC=CN=C4C=C3
Summary of the method: as §1

Nexturastat A = compound: CCCCN(Cc1ccc(C(=O)NO)cc1)C(=O)Nc1ccccc1 [Nexturastat A]
Summary of the method: as §1

vemurafenib = compound: CCCS(=O)(=O)Nc1ccc(F)c(C(=O)c2c[nH]c3ncc(-c4ccc(Cl)cc4)cc23)c1F [vemurafenib]
Summary of the method: as §1

[5] = compound: CCCS(=O)(=O)Nc1ccc(F)c(C(=O)c2c[nH]c3ncc(Cl)cc23)c1F
Summary of the method: as §1

[6] = compound: CCCc1cc(C)[nH]c(=O)c1CNC(=O)c1cc(-c2ccnc(N3CCN(C)CC3)c2)cc2c1cnn2C(C)C
Summary of the method: as §1

givinostat = compound: CCN(CC)Cc1ccc2cc(COC(=O)Nc3ccc(C(=O)NO)cc3)ccc2c1 [givinostat]
Summary of the method: as §1

barasertib = compound: CCN(CCCOc1ccc2c(Nc3cc(CC(=O)Nc4cccc(F)c4)[nH]n3)ncnc2c1)CCOP(=O)(O)O [barasertib]
Summary of the method: as §1

Measured: log2 fold change

RRAS2 isoform 4 (UniProt P62070)
inactive: [1] -0.016 | [2] -0.02 | [3] -0.009 | [4] -0.021 | Nexturastat A -0.015 | vemurafenib 0.011 | [5] -0.037 | [6] -0.034 | givinostat -0.017 | barasertib -0.049

RPL35 (UniProt P42766)
inactive: [1] -0.017 | [2] 0.053 | [3] -0.067 | [4] -0.112 | Nexturastat A 0.271 | vemurafenib -0.147 | [5] -0.121 | [6] 0.121 | givinostat 0.04 | barasertib -0.111

RPAP3 (UniProt Q9H6T3)
inactive: [1] 0.062 | [2] -0.03 | [3] -0.015 | [4] 0.042 | Nexturastat A 0.058 | vemurafenib 0.007 | [5] 0.026 | [6] 0 | givinostat 0.046 | barasertib 0.027

RPL38 (UniProt P63173)
inactive: [1] 0.032 | [2] 0.017 | [3] -0.038 | [4] -0.045 | Nexturastat A 0.075 | vemurafenib -0.003 | [5] 0.006 | [6] 0.069 | givinostat -0.054 | barasertib -0.025

RPL13A (UniProt P40429)
inactive: [1] 0.021 | [2] -0.022 | [3] -0.055 | [4] -0.19 | Nexturastat A 0.305 | vemurafenib -0.297 | [5] -0.17 | [6] 0.257 | givinostat 0.15 | barasertib -0.203

RRM2B isoform 6 (UniProt Q7LG56)
inactive: [1] -0.028 | [2] 0.006 | [3] 0.046 | [4] -0.02 | Nexturastat A -0.066 | vemurafenib -0.023 | [5] -0.061 | [6] -0.023 | givinostat 0.002 | barasertib 0.047

RPS21 (UniProt P63220)
inactive: [1] -0.007 | [2] 0.01 | [3] -0.042 | [4] -0.007 | Nexturastat A -0.033 | vemurafenib -0.077 | [5] -0.072 | [6] -0.038 | givinostat -0.015 | barasertib -0.016

RPS6KC1 (UniProt Q96S38)
inactive: [1] -0.023 | [2] 0.04 | [3] -0.017 | [4] 0.01 | Nexturastat A 0.214 | vemurafenib 0.055 | [5] 0.014 | [6] -0.211 | givinostat 0.12 | barasertib 0.008

RPS3 (UniProt P23396)
inactive: [1] 0.011 | [2] 0.003 | [3] -0.077 | [4] -0.042 | Nexturastat A 0.069 | vemurafenib -0.086 | [5] -0.102 | [6] 0.041 | givinostat 0.007 | barasertib -0.088

RPS20 isoform 2 (UniProt P60866)
inactive: [1] 0.056 | [2] 0.021 | [3] -0.049 | [4] -0.077 | Nexturastat A 0.112 | vemurafenib -0.117 | [5] -0.068 | [6] 0.008 | givinostat -0.032 | barasertib -0.063

RREB1 isoform 2 (UniProt Q92766)
inactive: [1] 0.047 | [2] -0.017 | [3] -0.132 | [4] 0.018 | Nexturastat A -0.098 | vemurafenib -0.011 | [5] -0.002 | [6] -0.12 | givinostat -0.06 | barasertib 0.105

RPS27A (UniProt P62979)
inactive: [1] -0.023 | [2] -0.011 | [3] -0.179 | [4] -0.075 | Nexturastat A 0.368 | vemurafenib -0.126 | [5] -0.224 | [6] 0.152 | givinostat -0.109 | barasertib -0.119

RPL11 (UniProt P62913)
inactive: [1] 0.005 | [2] 0.031 | [3] -0.058 | [4] -0.174 | Nexturastat A 0.354 | vemurafenib -0.251 | [5] -0.106 | [6] 0.267 | givinostat 0.102 | barasertib -0.122

RRAGA (UniProt Q7L523)
inactive: [1] -0.031 | [2] -0.059 | [3] -0.068 | [4] 0.108 | Nexturastat A -0.036 | vemurafenib 0.037 | [5] -0.042 | [6] -0.04 | givinostat -0.366 | barasertib -0.089

RPS27L (UniProt Q71UM5)
inactive: [1] -0.007 | [2] 0.003 | [3] 0.04 | [4] 0.038 | Nexturastat A 0.1 | vemurafenib -0.002 | [5] 0.001 | [6] 0.031 | givinostat 0.034 | barasertib -0.043

RP2 (UniProt O75695)
inactive: [1] 0.146 | [2] -0.084 | [3] -0.037 | [4] 0.038 | Nexturastat A 0.035 | vemurafenib -0.047 | [5] 0.016 | [6] -0.111 | givinostat -0.097 | barasertib -0.049

Copied from the entries so far (7 entries):
RPS21 (UniProt P63220)
inactive: [1] -0.007 | [2] 0.01 | [3] -0.042 | [4] -0.007 | Nexturastat A -0.033 | vemurafenib -0.077 | [5] -0.072 | [6] -0.038 | givinostat -0.015 | barasertib -0.016

RPS6KC1 (UniProt Q96S38)
inactive: [1] -0.023 | [2] 0.04 | [3] -0.017 | [4] 0.01 | Nexturastat A 0.214 | vemurafenib 0.055 | [5] 0.014 | [6] -0.211 | givinostat 0.12 | barasertib 0.008

RPS3 (UniProt P23396)
inactive: [1] 0.011 | [2] 0.003 | [3] -0.077 | [4] -0.042 | Nexturastat A 0.069 | vemurafenib -0.086 | [5] -0.102 | [6] 0.041 | givinostat 0.007 | barasertib -0.088

RPS20 isoform 2 (UniProt P60866)
inactive: [1] 0.056 | [2] 0.021 | [3] -0.049 | [4] -0.077 | Nexturastat A 0.112 | vemurafenib -0.117 | [5] -0.068 | [6] 0.008 | givinostat -0.032 | barasertib -0.063

RREB1 isoform 2 (UniProt Q92766)
inactive: [1] 0.047 | [2] -0.017 | [3] -0.132 | [4] 0.018 | Nexturastat A -0.098 | vemurafenib -0.011 | [5] -0.002 | [6] -0.12 | givinostat -0.06 | barasertib 0.105

RPS27A (UniProt P62979)
inactive: [1] -0.023 | [2] -0.011 | [3] -0.179 | [4] -0.075 | Nexturastat A 0.368 | vemurafenib -0.126 | [5] -0.224 | [6] 0.152 | givinostat -0.109 | barasertib -0.119

RPL11 (UniProt P62913)
inactive: [1] 0.005 | [2] 0.031 | [3] -0.058 | [4] -0.174 | Nexturastat A 0.354 | vemurafenib -0.251 | [5] -0.106 | [6] 0.267 | givinostat 0.102 | barasertib -0.122

Continued.

RPLP0 (UniProt P05388)
inactive: [1] -0.032 | [2] 0 | [3] -0.085 | [4] -0.152 | Nexturastat A 0.361 | vemurafenib -0.21 | [5] -0.08 | [6] 0.249 | givinostat 0.157 | barasertib -0.182

RPS19BP1 (UniProt Q86WX3)
inactive: [1] 0.064 | [2] -0.022 | [3] -0.163 | [4] -0.05 | Nexturastat A 0.379 | vemurafenib -0.173 | [5] 0.028 | [6] 0.137 | givinostat -0.065 | barasertib 0.008

RPL6 (UniProt Q02878)
inactive: [1] 0.033 | [2] -0.001 | [3] -0.073 | [4] -0.171 | Nexturastat A 0.545 | vemurafenib -0.295 | [5] -0.107 | [6] 0.255 | givinostat 0.18 | barasertib -0.211

RPL7A (UniProt P62424)
inactive: [1] -0.009 | [2] 0 | [3] -0.116 | [4] -0.283 | Nexturastat A 0.348 | vemurafenib -0.253 | [5] -0.156 | [6] 0.278 | givinostat 0.165 | barasertib -0.205

RPL26L1 (UniProt Q9UNX3)
inactive: [1] -0.022 | [2] 0.02 | [3] -0.1 | [4] -0.133 | Nexturastat A 0.198 | vemurafenib -0.15 | [5] -0.103 | [6] 0.16 | givinostat 0.015 | barasertib -0.097

RPP21 isoform 4 (UniProt Q9H633)
inactive: [1] -0.001 | [2] -0.008 | [3] -0.012 | [4] -0.089 | Nexturastat A -0.006 | vemurafenib -0.067 | [5] 0.129 | [6] -0.093 | givinostat 0.117 | barasertib -0.025

RRM2 isoform 2 (UniProt P31350)
inactive: [1] 0.002 | [2] -0.008 | [3] 0.025 | [4] 0.034 | Nexturastat A -0.001 | vemurafenib 0.021 | [5] 0.013 | [6] -0.033 | givinostat -0.07 | barasertib -0.027

RPS6KA3 (UniProt P51812)
inactive: [1] -0.072 | [2] -0.157 | [3] 0.021 | [4] 0.01 | Nexturastat A 0.015 | vemurafenib 0.001 | [5] 0.016 | [6] 0.042 | givinostat -0.227 | barasertib 0.06

RPL12 (UniProt P30050)
inactive: [1] -0.094 | [2] 0 | [3] -0.132 | [4] -0.185 | Nexturastat A 0.341 | vemurafenib -0.224 | [5] -0.128 | [6] 0.154 | givinostat 0.038 | barasertib -0.191

ROR2 (UniProt Q01974)
inactive: [1] 0.022 | [2] -0.061 | [3] 0.001 | [4] -0.009 | Nexturastat A -0.109 | vemurafenib 0.018 | [5] 0.007 | [6] 0.078 | givinostat 0.033 | barasertib 0.003

RPS10 (UniProt P46783)
inactive: [1] 0.009 | [2] 0.012 | [3] -0.073 | [4] -0.031 | Nexturastat A 0.128 | vemurafenib -0.091 | [5] -0.082 | [6] 0.086 | givinostat -0.007 | barasertib -0.067

RNPS1 (UniProt Q15287)
inactive: [1] -0.043 | [2] 0.015 | [3] 0.017 | [4] 0.031 | Nexturastat A 0.245 | vemurafenib -0.001 | [5] -0.033 | [6] -0.024 | givinostat 0.071 | barasertib 0.015

RPL36AL (UniProt Q969Q0)
inactive: [1] -0.003 | [2] 0.017 | [3] -0.046 | [4] -0.128 | Nexturastat A 0.101 | vemurafenib -0.19 | [5] -0.045 | [6] 0.302 | givinostat 0.023 | barasertib -0.168

RPS11 (UniProt P62280)
inactive: [1] 0.011 | [2] 0 | [3] -0.119 | [4] -0.046 | Nexturastat A 0.227 | vemurafenib -0.172 | [5] -0.127 | [6] 0.156 | givinostat 0.015 | barasertib -0.113
